{"sequences": {"note": "Sequences of proteins named here, by UniProt entry; tags and fusion partners are left off. Residues count along the entry.", "UniProt P15116, residues 160-906": "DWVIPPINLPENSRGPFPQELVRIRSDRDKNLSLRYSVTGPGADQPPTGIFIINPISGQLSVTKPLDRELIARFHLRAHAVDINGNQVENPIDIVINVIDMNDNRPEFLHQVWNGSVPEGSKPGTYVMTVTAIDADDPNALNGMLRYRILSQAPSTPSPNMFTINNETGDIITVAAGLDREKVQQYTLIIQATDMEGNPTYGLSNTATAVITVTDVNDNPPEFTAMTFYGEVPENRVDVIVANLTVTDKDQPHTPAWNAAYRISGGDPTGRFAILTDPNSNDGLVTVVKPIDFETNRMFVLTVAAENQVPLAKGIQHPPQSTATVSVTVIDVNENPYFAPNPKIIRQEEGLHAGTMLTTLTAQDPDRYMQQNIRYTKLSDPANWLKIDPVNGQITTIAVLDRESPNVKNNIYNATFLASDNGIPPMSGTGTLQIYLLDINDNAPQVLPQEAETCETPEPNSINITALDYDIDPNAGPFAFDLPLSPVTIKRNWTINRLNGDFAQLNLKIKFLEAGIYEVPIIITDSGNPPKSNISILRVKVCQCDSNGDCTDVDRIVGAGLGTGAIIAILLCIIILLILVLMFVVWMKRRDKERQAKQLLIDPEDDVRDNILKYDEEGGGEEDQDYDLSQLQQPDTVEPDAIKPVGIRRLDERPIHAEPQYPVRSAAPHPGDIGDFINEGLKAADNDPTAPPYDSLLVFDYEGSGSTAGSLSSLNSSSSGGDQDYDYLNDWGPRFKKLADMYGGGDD"}, "source": "paper PMC8593154", "molecular_target": "N-cadherin (UniProt P15116)", "assay": "cell aggregation assay; K562 cells individually expressing the indicated FRET constructs and N-cadherin, co-cultured", "note": "No constants are given. Whether binding was seen depends on the method and setting. Some entries that bind do so weakly or less than the wild type."}
{"substance": "N-cadherin (from UniProt P15116 160-906) (receptor)", "values": [{"measurement": "binding", "result": "binds"}]}
